Assay results from the supplement of paper PMC10849652.
Some of the results follow. Residues, ends and D or L forms follow the SMILES beside them. *: point of attachment. Cbz = O=C(OCc1ccccc1)*

Protein sequences, listed by entry. Tags and fused reporters are not part of them. Lines headed by an entry give the natural chain unless they say otherwise; changes in a name come on top.
UniProt Q17R31: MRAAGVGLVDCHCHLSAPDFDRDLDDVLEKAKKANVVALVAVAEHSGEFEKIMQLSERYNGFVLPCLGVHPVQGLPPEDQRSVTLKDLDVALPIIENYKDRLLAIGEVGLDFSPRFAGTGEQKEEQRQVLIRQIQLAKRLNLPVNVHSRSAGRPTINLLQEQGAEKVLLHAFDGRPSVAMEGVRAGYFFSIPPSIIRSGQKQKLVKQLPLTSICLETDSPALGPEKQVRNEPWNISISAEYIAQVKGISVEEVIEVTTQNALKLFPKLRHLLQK
UniProt Q9UNK0: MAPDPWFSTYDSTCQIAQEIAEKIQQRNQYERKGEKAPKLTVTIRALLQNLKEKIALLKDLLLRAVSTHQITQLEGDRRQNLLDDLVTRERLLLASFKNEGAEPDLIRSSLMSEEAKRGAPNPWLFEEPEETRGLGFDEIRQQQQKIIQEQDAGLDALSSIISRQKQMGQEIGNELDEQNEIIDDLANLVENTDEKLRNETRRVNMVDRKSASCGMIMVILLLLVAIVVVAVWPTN
UniProt Q6P1N9: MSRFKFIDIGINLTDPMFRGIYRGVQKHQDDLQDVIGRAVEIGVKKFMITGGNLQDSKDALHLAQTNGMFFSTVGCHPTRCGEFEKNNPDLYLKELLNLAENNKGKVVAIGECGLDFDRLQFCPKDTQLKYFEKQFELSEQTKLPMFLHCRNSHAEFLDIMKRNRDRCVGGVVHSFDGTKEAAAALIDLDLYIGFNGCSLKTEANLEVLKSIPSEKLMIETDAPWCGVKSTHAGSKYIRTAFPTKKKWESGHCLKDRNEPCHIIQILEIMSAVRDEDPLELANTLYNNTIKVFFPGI
UniProt Q8NHG7: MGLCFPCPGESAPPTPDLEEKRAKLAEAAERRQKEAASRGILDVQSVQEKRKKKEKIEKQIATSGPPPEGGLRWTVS
UniProt Q6NXT6: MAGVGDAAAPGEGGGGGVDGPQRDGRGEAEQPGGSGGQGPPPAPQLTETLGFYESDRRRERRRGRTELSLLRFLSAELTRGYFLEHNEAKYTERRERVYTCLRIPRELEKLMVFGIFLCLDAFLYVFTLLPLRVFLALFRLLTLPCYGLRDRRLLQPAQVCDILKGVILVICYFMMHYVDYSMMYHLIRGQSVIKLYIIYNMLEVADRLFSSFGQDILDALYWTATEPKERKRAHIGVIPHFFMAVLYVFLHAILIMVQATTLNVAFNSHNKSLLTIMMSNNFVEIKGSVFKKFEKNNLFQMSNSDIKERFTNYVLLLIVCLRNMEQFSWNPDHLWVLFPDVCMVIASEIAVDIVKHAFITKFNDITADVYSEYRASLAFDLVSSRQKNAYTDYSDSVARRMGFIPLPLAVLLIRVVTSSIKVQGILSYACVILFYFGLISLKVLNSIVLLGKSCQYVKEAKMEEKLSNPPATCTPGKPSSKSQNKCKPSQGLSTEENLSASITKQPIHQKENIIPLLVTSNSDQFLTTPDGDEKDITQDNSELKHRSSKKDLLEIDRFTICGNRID
UniProt O15533, whole entry, looked up: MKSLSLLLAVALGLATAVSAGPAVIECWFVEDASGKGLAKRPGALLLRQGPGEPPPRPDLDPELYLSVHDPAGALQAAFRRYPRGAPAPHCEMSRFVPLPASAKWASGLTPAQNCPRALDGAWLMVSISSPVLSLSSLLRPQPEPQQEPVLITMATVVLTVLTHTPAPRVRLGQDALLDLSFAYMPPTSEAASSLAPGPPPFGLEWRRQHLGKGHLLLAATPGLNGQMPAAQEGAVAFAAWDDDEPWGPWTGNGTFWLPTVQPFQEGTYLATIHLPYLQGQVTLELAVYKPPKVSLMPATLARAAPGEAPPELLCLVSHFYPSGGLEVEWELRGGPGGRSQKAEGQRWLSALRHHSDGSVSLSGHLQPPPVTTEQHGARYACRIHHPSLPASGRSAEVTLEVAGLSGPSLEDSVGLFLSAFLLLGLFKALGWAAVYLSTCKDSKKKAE
UniProt O75410: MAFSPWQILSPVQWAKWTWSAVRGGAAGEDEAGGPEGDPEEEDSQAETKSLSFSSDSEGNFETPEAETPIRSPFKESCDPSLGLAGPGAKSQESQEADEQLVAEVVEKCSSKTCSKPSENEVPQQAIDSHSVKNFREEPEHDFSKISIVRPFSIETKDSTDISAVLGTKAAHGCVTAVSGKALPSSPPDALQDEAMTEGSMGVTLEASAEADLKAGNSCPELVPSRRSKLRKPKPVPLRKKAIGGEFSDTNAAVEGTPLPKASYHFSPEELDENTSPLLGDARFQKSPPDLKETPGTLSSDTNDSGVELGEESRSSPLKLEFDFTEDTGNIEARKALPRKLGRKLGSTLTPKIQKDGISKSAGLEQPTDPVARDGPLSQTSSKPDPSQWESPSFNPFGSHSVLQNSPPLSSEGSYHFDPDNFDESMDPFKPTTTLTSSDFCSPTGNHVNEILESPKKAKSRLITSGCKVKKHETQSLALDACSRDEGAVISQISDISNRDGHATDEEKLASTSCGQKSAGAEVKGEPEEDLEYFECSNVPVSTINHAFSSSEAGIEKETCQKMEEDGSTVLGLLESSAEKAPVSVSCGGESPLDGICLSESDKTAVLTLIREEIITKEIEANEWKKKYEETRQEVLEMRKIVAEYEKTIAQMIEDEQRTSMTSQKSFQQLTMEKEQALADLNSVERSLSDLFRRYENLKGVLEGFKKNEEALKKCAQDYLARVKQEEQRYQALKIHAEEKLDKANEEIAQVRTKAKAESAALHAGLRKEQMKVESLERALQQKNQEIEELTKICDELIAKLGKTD
UniProt O60506: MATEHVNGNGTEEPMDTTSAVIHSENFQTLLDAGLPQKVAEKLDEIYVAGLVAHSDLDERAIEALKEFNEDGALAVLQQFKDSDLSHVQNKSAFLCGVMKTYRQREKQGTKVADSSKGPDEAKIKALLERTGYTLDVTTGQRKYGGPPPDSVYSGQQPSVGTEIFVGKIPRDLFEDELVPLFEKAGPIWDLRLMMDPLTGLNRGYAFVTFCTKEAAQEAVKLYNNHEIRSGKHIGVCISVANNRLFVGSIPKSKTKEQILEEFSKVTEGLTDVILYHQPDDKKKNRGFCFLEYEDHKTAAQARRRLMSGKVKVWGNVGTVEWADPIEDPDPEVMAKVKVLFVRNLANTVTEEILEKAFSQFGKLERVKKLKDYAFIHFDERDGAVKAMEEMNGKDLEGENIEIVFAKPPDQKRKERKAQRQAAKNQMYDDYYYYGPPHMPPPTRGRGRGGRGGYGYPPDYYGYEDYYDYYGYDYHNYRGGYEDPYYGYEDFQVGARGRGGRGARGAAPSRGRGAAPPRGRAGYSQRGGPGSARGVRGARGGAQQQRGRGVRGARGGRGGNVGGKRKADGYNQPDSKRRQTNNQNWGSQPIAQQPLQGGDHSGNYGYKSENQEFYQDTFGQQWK
UniProt Q9UJZ1: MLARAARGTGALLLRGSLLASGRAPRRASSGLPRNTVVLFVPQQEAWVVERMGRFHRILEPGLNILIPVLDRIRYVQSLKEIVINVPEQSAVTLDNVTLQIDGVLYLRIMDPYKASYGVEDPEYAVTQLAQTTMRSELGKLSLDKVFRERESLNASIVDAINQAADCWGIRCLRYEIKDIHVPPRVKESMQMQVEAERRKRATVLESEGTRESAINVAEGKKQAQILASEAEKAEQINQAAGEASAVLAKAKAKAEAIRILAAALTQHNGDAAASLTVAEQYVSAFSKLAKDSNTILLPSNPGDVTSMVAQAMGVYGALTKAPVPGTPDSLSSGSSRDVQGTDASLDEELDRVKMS
UniProt Q9Y2Z0: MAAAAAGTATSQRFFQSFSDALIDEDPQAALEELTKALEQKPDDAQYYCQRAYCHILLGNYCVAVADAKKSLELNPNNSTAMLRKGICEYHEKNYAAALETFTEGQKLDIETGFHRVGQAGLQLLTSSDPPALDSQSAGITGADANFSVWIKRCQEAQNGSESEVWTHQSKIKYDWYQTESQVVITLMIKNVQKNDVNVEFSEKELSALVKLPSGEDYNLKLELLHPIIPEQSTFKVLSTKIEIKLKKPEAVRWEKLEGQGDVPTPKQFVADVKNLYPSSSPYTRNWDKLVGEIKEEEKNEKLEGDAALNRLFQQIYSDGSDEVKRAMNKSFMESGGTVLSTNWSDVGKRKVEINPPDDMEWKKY
UniProt Q15545, whole entry, looked up: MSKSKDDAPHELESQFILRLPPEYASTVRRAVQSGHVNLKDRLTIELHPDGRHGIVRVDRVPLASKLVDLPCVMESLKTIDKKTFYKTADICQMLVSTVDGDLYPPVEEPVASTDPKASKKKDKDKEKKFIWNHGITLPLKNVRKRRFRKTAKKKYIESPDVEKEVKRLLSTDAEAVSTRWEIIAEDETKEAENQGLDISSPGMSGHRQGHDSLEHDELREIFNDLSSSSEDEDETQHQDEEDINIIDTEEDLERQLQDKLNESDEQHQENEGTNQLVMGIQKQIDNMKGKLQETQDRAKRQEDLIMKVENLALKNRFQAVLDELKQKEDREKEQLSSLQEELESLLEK
UniProt Q15633: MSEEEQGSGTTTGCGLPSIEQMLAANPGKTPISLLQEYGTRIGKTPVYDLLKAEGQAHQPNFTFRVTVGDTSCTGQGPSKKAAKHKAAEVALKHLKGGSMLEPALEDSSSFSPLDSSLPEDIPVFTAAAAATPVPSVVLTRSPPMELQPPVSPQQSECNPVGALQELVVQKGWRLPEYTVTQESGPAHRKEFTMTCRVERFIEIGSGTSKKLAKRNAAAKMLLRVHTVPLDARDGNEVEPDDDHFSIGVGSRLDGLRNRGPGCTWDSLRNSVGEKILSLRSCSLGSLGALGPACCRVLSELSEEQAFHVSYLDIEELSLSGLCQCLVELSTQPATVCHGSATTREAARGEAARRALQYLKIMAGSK
UniProt O43426, whole entry, looked up: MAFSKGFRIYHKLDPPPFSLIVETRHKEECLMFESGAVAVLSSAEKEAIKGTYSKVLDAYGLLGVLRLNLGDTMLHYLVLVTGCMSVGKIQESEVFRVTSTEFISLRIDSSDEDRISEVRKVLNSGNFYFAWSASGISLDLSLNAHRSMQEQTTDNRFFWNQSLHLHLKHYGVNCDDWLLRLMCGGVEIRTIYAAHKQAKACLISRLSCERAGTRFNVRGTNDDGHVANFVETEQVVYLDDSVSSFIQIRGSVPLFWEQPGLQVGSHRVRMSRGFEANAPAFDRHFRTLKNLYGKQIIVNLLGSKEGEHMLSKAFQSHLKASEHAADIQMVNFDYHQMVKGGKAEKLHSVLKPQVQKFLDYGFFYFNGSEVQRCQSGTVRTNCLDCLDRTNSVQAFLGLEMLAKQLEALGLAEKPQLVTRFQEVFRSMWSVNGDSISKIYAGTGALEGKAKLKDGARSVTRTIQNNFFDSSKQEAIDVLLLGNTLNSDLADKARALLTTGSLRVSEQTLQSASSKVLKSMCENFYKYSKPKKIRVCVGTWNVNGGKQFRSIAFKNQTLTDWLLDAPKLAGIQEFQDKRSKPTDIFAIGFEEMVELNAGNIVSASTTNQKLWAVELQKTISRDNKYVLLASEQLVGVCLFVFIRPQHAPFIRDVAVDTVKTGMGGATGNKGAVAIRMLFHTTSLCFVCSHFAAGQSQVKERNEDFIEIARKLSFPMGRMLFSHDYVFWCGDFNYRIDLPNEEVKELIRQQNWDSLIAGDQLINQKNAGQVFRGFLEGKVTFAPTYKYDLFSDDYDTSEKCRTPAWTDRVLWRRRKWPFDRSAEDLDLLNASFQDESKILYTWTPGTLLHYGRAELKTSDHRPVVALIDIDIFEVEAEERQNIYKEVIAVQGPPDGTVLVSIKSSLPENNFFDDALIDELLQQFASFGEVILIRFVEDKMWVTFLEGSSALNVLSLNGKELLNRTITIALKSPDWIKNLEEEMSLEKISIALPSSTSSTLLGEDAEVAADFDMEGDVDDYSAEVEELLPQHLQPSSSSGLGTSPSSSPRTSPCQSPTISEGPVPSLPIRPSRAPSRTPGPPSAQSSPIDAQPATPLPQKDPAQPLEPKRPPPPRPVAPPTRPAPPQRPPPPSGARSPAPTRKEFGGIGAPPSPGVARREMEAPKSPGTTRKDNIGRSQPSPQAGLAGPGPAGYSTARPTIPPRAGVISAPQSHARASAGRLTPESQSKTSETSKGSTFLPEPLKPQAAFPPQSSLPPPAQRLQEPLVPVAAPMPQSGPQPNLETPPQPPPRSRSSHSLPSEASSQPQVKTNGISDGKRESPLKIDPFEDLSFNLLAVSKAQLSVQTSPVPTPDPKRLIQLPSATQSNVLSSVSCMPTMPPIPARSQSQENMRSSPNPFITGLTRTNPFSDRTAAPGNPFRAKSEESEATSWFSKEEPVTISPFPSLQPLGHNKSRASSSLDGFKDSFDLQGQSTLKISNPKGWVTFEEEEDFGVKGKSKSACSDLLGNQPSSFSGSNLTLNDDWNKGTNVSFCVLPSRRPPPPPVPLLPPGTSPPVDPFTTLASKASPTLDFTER

Legend:
Assay in all cases: log2 fold change, soluble protein after heating vs DMSO (PISA); higher = thermal stabilisation; K562 cells, 10 uM, 30 min; active = over 0.2 and 3.5 SD of the protein, either way, in both replicates (recomputed)
erlotinib = compound: C#Cc1cccc(Nc2ncnc3cc(OCCOC)c(OCCOC)cc23)c1 [erlotinib]
Method in brief: (§1)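 K562 cells at 2×10^6 cells/mL were exposed to 10 μM compound for 30 min, then aliquots were heated for 3 min across 48°C-58°C, pooled, and extracted in PBS containing 0.5% NP-40 at 4°C. The supernatant after 21,000xg for 90 min was taken as soluble protein and measured by TMTpro 16plex LC-MS/MS with channel sums equalised. Thermal stability is reported relative to control samples, with values from duplicates. Fold changes are given on a log2 scale.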

[1] = compound: C/C(=N\NC(=O)C1=CC(=CC=C1)S(=O)(=O)N2CCOCC2)/C3=C(C=CC(=C3)Cl)O
Method in brief: as §1

[2] = compound: C1=CC(=C(C=C1Cl)C2=NC3=NC=CN=C3C(=N2)NC4=CC=NC=C4)F
Method in brief: as §1

[3] = compound: C1=CC(=CC=C1C2=NC3=C(N2)C=C(C=C3)C(=O)N)OC4=CC=C(C=C4)Cl
Method in brief: as §1

[4] = compound: C1=CC2=C(C=CC(=C2)/C=C\3/C(=O)NC(=NCC4=CC=CS4)S3)N=C1
Method in brief: as §1

[5] = compound: C1=CC2=NC=CN=C2C=C1/C=C/3\C(=O)NC(=O)S3
Method in brief: as §1

[6] = compound: C1=CC=C(C=C1)C2=NC(=C(N2)C3=CC=NC=C3)C4=CC(=C(C=C4)Cl)O
Method in brief: as §1

[7] = compound: C1=CC=C2C(=C1)C3=NNC4=CC=CC(=C43)C2=O
Method in brief: as §1

[8] = compound: C1CCN(C1)C(=O)NC2=CC=CC(=C2)NC3=NC=C(C(=N3)NCCC4=CN=CN4)Br
Method in brief: as §1

[9] = compound: C1CN(CCC1(CC2=CC=C(C=C2)Cl)N)C3=NC=NC4=C3C=CN4
Method in brief: as §1

IRAK-1-4 Inhibitor I = compound: C1COCCN1CCN2C3=CC=CC=C3N=C2NC(=O)C4=CC(=CC=C4)[N+](=O)[O-] [IRAK-1-4 Inhibitor I]
Method in brief: as §1

ibrutinib = compound: C=CC(=O)N1CCC[C@@H](n2nc(-c3ccc(Oc4ccccc4)cc3)c3c(N)ncnc32)C1 [ibrutinib]
Method in brief: as §1

[10] = compound: CC(=O)c1cnc2ccc(-c3cc(Cl)c(O)c(Cl)c3)nc2c1N[C@H]1CC[C@H](CN(C)C)CC1
Method in brief: as §1

ralimetinib = compound: CC(C)(C)Cn1c(N)nc2ccc(-c3[nH]c(C(C)(C)C)nc3-c3ccc(F)cc3)nc21 [ralimetinib]
Method in brief: as §1

[11] = compound: CC(C)(O)CC(=O)NCCn1ccc2ncnc(Nc3ccc(Oc4cccc(C(F)(F)F)c4)c(Cl)c3)c21
Method in brief: as §1

[12] = compound: CC(C)C1=C2N=C(C=C(N2N=C1)NCC3=CC=CC=C3)NCCCCCCN
Method in brief: as §1

[13] = compound: CC(C)C[C@@H](C=O)NC(=O)[C@H](CC(C)C)NC(=O)[C@H](CC(C)C)NC(=O)OCc1ccccc1
Method in brief: as §1

pinometostat = compound: CC(C)N(C[C@H]1O[C@@H](n2cnc3c(N)ncnc32)[C@H](O)[C@@H]1O)[C@H]1C[C@@H](CCc2nc3cc(C(C)(C)C)ccc3[nH]2)C1 [pinometostat]
Method in brief: as §1

[14] = compound: CC1=C(C(CC(=O)N1)C2=CC=C(C=C2)C(F)(F)F)C(=O)NC3=C(C=C4C(=C3)C=NN4)F
Method in brief: as §1

[15] = compound: CC1=C(C2=C(C=C1)C(=O)C3=CC=CC=C3N2CCCN)C
Method in brief: as §1

Measured: log2 fold change

SYNRG (UniProt Q9UMZ2)
inactive: erlotinib -0.012 | [1] 0.023 | [2] -0.014 | [3] 0.004 | [4] -0.044 | [5] 0.037 | [6] 0.029 | [7] -0.042 | [8] 0.053 | [9] -0.005 | IRAK-1-4 Inhibitor I 0.019 | ibrutinib -0.039 | [10] 0.067 | ralimetinib 0.099 | [11] 0.068 | [12] -0.016 | [13] -0.064 | pinometostat 0.014 | [14] 0.025 | [15] -0.05

TATDN3 isoform 3 (UniProt Q17R31)
inactive: erlotinib 0.012 | [1] -0.01 | [2] -0.034 | [3] -0.005 | [4] 0.029 | [5] 0.012 | [6] -0.018 | [7] -0.017 | [8] 0.052 | [9] -0.042 | IRAK-1-4 Inhibitor I 0.017 | ibrutinib 0.021 | [10] -0.046 | ralimetinib 0.001 | [11] 0.015 | [12] 0.033 | [13] -0.029 | pinometostat 0.011 | [14] 0.001 | [15] -0.006

STX8 (UniProt Q9UNK0)
inactive: erlotinib 0.003 | [1] -0.013 | [2] 0.012 | [3] 0.056 | [4] -0.014 | [5] 0.035 | [6] 0.001 | [7] -0.061 | [8] 0.009 | [9] -0.026 | IRAK-1-4 Inhibitor I -0.009 | ibrutinib 0 | [10] 0.001 | ralimetinib 0.118 | [11] 0.006 | [12] -0.082 | [13] 0.008 | pinometostat 0.035 | [14] -0.011 | [15] 0.042

TATDN1 (UniProt Q6P1N9)
inactive: erlotinib -0.062 | [1] -0.089 | [2] -0.059 | [3] 0.02 | [4] -0.013 | [5] 0.047 | [6] -0.016 | [7] 0.013 | [8] 0.073 | [9] 0.076 | IRAK-1-4 Inhibitor I 0.106 | ibrutinib 0.005 | [10] -0.008 | ralimetinib -0.032 | [11] 0.018 | [12] 0.018 | [13] -0.003 | pinometostat -0.012 | [14] 0.011 | [15] -0.052

SVIP (UniProt Q8NHG7)
inactive: erlotinib -0.009 | [1] 0.051 | [2] 0.037 | [3] -0.037 | [4] 0.076 | [5] -0.013 | [6] 0.028 | [7] -0.163 | [8] 0.034 | [9] 0.039 | IRAK-1-4 Inhibitor I -0.027 | ibrutinib 0.075 | [10] -0.065 | ralimetinib 0.044 | [11] -0.022 | [12] 0.131 | [13] -0.036 | pinometostat -0.085 | [14] 0.029 | [15] 0.057

TAB1 (UniProt Q15750)
inactive: erlotinib 0.039 | [1] 0.059 | [2] 0.06 | [3] -0.047 | [4] 0.068 | [5] 0 | [6] -0.069 | [7] 0.028 | [8] -0.027 | [9] -0.176 | IRAK-1-4 Inhibitor I -0.12 | ibrutinib -0.212 | [10] -0.139 | ralimetinib 0.071 | [11] -0.125 | [12] -0.018 | [13] 0.031 | pinometostat 0.025 | [14] -0.017 | [15] -0.009

TAPT1 (UniProt Q6NXT6)
inactive: erlotinib 0.029 | [1] -0.022 | [2] 0.05 | [3] 0.024 | [4] 0.057 | [5] -0.004 | [6] -0.041 | [7] -0.041 | [8] -0.005 | [9] 0.003 | IRAK-1-4 Inhibitor I -0.008 | ibrutinib 0.01 | [10] 0.02 | ralimetinib -0.085 | [11] 0.027 | [12] 0.014 | [13] 0.018 | pinometostat 0.024 | [14] 0.006 | [15] -0.003

TAPBP isoform 3 (UniProt O15533)
inactive: erlotinib -0.042 | [1] -0.073 | [2] 0.083 | [3] 0.054 | [4] -0.131 | [5] 0.032 | [6] 0.307 | [7] 0.104 | [8] -0.054 | [9] 0.138 | IRAK-1-4 Inhibitor I -0.058 | ibrutinib -0.106 | [10] 0.037 | ralimetinib 0.086 | [11] -0.264 | [12] -0.094 | [13] 0.015 | pinometostat 0.064 | [14] -0.06 | [15] -0.012

STX5 (UniProt Q13190)
inactive: erlotinib -0.003 | [1] 0.089 | [2] -0.068 | [3] 0.002 | [4] 0.057 | [5] -0.025 | [6] 0.042 | [7] 0.039 | [8] -0.087 | [9] -0.025 | IRAK-1-4 Inhibitor I -0.08 | ibrutinib -0.053 | [10] -0.009 | ralimetinib 0.046 | [11] -0.066 | [12] -0.023 | [13] -0.021 | pinometostat 0.096 | [14] -0.156 | [15] 0.145

TACC1 isoform 2 (UniProt O75410)
inactive: erlotinib 0.025 | [1] -0.002 | [2] 0.043 | [3] -0.006 | [4] 0.021 | [5] 0.05 | [6] -0.033 | [7] -0.056 | [8] -0.015 | [9] 0.006 | IRAK-1-4 Inhibitor I 0.042 | ibrutinib -0.034 | [10] 0.123 | ralimetinib -0.025 | [11] -0.007 | [12] -0.049 | [13] 0.022 | pinometostat -0.008 | [14] 0.005 | [15] 0

SYNCRIP isoform 3 (UniProt O60506)
inactive: erlotinib -0.066 | [1] -0.167 | [2] -0.231 | [3] 0.035 | [4] -0.006 | [5] -0.019 | [6] -0.046 | [7] -0.004 | [8] 0.107 | [9] 0.02 | IRAK-1-4 Inhibitor I -0.109 | ibrutinib 0.106 | [10] -0.026 | ralimetinib 0.137 | [11] 0.134 | [12] 0.043 | [13] 0.026 | pinometostat 0.082 | [14] -0.026 | [15] -0.303

Random excerpt: 2 entries already listed, in no set order.
SYNCRIP isoform 3 (UniProt O60506)
inactive: erlotinib -0.066 | [1] -0.167 | [2] -0.231 | [3] 0.035 | [4] -0.006 | [5] -0.019 | [6] -0.046 | [7] -0.004 | [8] 0.107 | [9] 0.02 | IRAK-1-4 Inhibitor I -0.109 | ibrutinib 0.106 | [10] -0.026 | ralimetinib 0.137 | [11] 0.134 | [12] 0.043 | [13] 0.026 | pinometostat 0.082 | [14] -0.026 | [15] -0.303

SYNRG (UniProt Q9UMZ2)
inactive: erlotinib -0.012 | [1] 0.023 | [2] -0.014 | [3] 0.004 | [4] -0.044 | [5] 0.037 | [6] 0.029 | [7] -0.042 | [8] 0.053 | [9] -0.005 | IRAK-1-4 Inhibitor I 0.019 | ibrutinib -0.039 | [10] 0.067 | ralimetinib 0.099 | [11] 0.068 | [12] -0.016 | [13] -0.064 | pinometostat 0.014 | [14] 0.025 | [15] -0.05

Carrying on.

STOML2 (UniProt Q9UJZ1)
inactive: erlotinib 0.039 | [1] -0.045 | [2] 0.008 | [3] 0 | [4] -0.001 | [5] 0.014 | [6] 0.007 | [7] 0.053 | [8] -0.005 | [9] 0.055 | IRAK-1-4 Inhibitor I -0.016 | ibrutinib -0.011 | [10] -0.031 | ralimetinib 0.008 | [11] 0.007 | [12] 0.043 | [13] -0.035 | pinometostat -0.023 | [14] 0.008 | [15] 0.019

SUGT1 (UniProt Q9Y2Z0)
inactive: erlotinib -0.008 | [1] 0.005 | [2] 0.055 | [3] -0.01 | [4] -0.06 | [5] 0.037 | [6] 0.049 | [7] 0.009 | [8] 0.006 | [9] -0.024 | IRAK-1-4 Inhibitor I 0.021 | ibrutinib -0.024 | [10] 0.02 | ralimetinib 0.05 | [11] 0.005 | [12] 0.001 | [13] -0.012 | pinometostat -0.063 | [14] -0.004 | [15] -0.027

TAF7 (UniProt Q15545)
inactive: erlotinib -0.024 | [1] -0.01 | [2] -0.044 | [3] 0.006 | [4] 0.041 | [5] 0.003 | [6] -0.072 | [7] -0.011 | [8] -0.008 | [9] 0.021 | IRAK-1-4 Inhibitor I 0.026 | ibrutinib -0.028 | [10] -0.036 | ralimetinib -0.042 | [11] 0.007 | [12] -0.006 | [13] 0.179 | pinometostat -0.021 | [14] 0.004 | [15] -0.074

TARBP2 (UniProt Q15633)
inactive: erlotinib 0.058 | [1] -0.061 | [2] -0.194 | [3] 0.027 | [4] 0.032 | [5] 0.061 | [6] 0.047 | [7] 0.02 | [8] 0.106 | [9] -0.181 | IRAK-1-4 Inhibitor I -0.079 | ibrutinib -0.024 | [10] -0.025 | ralimetinib 0.327 | [11] 0.064 | [12] 0.013 | [13] 0.022 | pinometostat 0.316 | [14] 0.027 | [15] -0.073

SYNJ1 (UniProt O43426)
inactive: erlotinib 0.06 | [1] 0.079 | [2] -0.04 | [3] -0.022 | [4] 0.002 | [5] -0.008 | [6] 0.11 | [7] -0.09 | [8] 0.029 | [9] 0.025 | IRAK-1-4 Inhibitor I 0.009 | ibrutinib -0.01 | [10] -0.066 | ralimetinib 0.136 | [11] 0.069 | [12] 0.137 | [13] 0.002 | pinometostat 0.048 | [14] 0.019 | [15] 0.108
